Measured values: PMC9066121
No constants are given. Whether binding was seen depends on the method and setting. Binding seen in cells or lysates may run through a third protein. Some results given as binding are weak or reduced against the parent protein; the word gives no strength.

The chains behind the UniProt entries cited, without tags or fusion partners. Where a name states a change or a piece, a line headed by the entry shows the natural chain unless it says otherwise.
UniProt P38606: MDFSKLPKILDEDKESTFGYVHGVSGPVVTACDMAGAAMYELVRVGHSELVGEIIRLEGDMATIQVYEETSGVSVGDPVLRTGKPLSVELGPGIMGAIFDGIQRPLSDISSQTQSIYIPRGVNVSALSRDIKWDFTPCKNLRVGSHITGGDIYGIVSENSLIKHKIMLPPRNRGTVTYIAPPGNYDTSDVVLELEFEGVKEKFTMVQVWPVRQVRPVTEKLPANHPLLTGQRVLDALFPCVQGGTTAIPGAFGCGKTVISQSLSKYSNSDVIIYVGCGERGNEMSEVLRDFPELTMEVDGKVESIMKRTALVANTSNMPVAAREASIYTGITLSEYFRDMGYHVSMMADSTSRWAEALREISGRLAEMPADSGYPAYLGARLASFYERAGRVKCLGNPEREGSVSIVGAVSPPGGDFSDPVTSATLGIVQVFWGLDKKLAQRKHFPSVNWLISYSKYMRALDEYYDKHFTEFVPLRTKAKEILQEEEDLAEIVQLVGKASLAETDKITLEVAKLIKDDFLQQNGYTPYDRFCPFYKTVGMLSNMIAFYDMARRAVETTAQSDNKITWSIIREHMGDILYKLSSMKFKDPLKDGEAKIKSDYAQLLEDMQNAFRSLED
UniProt Q93050: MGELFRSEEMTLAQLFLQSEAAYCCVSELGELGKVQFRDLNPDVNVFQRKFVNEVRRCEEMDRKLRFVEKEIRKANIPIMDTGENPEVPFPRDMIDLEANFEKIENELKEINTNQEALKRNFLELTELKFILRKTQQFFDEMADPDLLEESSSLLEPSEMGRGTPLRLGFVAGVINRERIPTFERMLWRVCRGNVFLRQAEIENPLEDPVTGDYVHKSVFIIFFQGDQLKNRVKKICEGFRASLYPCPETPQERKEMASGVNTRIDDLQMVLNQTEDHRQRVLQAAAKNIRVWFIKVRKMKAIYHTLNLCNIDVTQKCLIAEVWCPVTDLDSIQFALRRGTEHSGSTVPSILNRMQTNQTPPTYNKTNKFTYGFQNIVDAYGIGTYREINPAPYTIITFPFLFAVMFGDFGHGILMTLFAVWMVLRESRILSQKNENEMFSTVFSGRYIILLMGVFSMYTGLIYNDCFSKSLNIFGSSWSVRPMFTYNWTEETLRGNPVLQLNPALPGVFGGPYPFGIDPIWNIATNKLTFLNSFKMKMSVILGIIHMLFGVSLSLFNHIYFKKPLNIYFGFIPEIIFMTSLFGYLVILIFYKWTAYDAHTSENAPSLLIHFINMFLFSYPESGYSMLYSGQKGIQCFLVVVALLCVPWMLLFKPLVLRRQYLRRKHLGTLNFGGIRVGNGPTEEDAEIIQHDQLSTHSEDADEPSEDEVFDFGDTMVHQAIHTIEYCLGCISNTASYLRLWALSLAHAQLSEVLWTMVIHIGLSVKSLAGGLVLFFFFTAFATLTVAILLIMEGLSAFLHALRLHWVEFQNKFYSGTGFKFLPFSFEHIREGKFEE

Target: V-ATPase subunit V1A (human (endogenous in HeLa)) (UniProt P38606)
Experiment: co-IP; V1A antibody (IgG as control) with HeLa cell lysate (RIPA buffer, 1% NP-40, 0.25% deoxycholate), Dynabeads Protein G, 4 C; blots for V0a1, V1A and GAPDH; cells treated with 0.1% DMSO or TSN 100 nM for 12 h

binding: binds
Substance: V-ATPase subunit V0a1 (from UniProt Q93050 1-837)
